We go through 1 substance from PMC12343876.

Chains of the proteins cited; added tags and fusions are not shown. Residues count along the entry.
UniProt O00429: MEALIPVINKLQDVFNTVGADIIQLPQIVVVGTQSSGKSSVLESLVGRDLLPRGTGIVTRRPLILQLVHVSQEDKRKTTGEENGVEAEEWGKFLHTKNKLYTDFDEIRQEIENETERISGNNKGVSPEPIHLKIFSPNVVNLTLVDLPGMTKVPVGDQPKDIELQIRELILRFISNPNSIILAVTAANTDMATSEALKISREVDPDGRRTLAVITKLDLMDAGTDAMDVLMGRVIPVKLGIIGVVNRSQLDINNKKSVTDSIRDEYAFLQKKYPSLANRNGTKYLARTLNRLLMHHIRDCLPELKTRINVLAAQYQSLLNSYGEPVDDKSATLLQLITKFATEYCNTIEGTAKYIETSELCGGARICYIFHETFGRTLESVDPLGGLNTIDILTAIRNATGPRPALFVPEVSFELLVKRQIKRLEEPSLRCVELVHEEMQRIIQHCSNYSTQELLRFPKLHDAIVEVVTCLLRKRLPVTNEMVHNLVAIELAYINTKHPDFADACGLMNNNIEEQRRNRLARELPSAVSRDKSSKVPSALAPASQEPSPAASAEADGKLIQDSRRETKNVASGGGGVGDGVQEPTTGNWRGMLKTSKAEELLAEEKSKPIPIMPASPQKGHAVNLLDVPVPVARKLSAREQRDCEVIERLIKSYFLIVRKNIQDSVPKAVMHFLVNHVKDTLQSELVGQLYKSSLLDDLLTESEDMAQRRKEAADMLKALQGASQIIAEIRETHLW
UniProt P63165, residues 1-97: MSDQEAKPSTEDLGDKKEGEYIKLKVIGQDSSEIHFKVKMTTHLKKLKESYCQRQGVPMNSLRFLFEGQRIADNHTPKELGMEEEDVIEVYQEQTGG

This test addresses Dynamin-related protein 1 (Drp1) (human (endogenous in primary nucleus pulposus cells)) (UniProt O00429). Nature of the test: co-IP; anti-Drp1 antibody with Protein A/G magnetic beads, 4 °C overnight, NP-40 lysates of human NPCs; blot for SUMO1; cells with or without MAPL overexpression and TNF-α (10 ng/mL, 24 h).

Results are given in words; binding and its absence hold for the method and conditions named. Binding seen in cells or lysates may run through a third protein. Some binding calls cover weakened binding; strength is not graded here.

For “Small ubiquitin-like modifier 1 (SUMO1) (from UniProt P63165 1-97)”, the binding result is “binds”.
